Measurements: paper PMC9170682

Amino acid sequences for entries named in this document (tags omitted). A change or cut given only in a name is not applied to a line headed by its entry.
UniProt Q9FLP2: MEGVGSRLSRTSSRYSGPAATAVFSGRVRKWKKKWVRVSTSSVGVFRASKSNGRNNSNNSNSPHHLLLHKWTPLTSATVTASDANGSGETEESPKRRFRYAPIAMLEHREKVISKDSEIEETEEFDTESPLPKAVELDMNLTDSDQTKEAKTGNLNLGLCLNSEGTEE
UniProt Q9C6P8: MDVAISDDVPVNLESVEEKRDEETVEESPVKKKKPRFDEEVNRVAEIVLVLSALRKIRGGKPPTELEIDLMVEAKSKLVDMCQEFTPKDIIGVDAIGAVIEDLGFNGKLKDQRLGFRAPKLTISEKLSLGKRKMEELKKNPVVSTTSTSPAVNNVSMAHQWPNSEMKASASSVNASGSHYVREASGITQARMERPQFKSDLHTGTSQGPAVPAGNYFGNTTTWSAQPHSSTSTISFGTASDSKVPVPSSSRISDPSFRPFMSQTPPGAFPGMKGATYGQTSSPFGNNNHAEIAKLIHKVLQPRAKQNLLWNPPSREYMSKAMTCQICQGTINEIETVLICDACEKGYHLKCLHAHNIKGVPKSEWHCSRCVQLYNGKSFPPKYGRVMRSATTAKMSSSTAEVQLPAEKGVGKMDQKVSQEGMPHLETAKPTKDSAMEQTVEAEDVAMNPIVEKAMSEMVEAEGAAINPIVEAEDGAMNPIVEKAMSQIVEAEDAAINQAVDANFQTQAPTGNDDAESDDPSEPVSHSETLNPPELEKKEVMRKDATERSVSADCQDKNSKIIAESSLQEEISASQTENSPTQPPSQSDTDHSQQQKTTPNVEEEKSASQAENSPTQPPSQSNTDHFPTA
UniProt Q9LPJ1: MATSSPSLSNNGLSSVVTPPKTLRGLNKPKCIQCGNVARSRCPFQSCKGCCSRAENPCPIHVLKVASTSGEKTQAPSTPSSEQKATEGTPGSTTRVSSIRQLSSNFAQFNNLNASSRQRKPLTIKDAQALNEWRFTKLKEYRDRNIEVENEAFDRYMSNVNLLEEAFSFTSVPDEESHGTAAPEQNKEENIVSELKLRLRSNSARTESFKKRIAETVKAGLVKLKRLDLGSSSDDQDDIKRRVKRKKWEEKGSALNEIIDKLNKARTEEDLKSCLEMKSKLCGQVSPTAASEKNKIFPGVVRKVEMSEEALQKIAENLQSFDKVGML
UniProt F4IHS2: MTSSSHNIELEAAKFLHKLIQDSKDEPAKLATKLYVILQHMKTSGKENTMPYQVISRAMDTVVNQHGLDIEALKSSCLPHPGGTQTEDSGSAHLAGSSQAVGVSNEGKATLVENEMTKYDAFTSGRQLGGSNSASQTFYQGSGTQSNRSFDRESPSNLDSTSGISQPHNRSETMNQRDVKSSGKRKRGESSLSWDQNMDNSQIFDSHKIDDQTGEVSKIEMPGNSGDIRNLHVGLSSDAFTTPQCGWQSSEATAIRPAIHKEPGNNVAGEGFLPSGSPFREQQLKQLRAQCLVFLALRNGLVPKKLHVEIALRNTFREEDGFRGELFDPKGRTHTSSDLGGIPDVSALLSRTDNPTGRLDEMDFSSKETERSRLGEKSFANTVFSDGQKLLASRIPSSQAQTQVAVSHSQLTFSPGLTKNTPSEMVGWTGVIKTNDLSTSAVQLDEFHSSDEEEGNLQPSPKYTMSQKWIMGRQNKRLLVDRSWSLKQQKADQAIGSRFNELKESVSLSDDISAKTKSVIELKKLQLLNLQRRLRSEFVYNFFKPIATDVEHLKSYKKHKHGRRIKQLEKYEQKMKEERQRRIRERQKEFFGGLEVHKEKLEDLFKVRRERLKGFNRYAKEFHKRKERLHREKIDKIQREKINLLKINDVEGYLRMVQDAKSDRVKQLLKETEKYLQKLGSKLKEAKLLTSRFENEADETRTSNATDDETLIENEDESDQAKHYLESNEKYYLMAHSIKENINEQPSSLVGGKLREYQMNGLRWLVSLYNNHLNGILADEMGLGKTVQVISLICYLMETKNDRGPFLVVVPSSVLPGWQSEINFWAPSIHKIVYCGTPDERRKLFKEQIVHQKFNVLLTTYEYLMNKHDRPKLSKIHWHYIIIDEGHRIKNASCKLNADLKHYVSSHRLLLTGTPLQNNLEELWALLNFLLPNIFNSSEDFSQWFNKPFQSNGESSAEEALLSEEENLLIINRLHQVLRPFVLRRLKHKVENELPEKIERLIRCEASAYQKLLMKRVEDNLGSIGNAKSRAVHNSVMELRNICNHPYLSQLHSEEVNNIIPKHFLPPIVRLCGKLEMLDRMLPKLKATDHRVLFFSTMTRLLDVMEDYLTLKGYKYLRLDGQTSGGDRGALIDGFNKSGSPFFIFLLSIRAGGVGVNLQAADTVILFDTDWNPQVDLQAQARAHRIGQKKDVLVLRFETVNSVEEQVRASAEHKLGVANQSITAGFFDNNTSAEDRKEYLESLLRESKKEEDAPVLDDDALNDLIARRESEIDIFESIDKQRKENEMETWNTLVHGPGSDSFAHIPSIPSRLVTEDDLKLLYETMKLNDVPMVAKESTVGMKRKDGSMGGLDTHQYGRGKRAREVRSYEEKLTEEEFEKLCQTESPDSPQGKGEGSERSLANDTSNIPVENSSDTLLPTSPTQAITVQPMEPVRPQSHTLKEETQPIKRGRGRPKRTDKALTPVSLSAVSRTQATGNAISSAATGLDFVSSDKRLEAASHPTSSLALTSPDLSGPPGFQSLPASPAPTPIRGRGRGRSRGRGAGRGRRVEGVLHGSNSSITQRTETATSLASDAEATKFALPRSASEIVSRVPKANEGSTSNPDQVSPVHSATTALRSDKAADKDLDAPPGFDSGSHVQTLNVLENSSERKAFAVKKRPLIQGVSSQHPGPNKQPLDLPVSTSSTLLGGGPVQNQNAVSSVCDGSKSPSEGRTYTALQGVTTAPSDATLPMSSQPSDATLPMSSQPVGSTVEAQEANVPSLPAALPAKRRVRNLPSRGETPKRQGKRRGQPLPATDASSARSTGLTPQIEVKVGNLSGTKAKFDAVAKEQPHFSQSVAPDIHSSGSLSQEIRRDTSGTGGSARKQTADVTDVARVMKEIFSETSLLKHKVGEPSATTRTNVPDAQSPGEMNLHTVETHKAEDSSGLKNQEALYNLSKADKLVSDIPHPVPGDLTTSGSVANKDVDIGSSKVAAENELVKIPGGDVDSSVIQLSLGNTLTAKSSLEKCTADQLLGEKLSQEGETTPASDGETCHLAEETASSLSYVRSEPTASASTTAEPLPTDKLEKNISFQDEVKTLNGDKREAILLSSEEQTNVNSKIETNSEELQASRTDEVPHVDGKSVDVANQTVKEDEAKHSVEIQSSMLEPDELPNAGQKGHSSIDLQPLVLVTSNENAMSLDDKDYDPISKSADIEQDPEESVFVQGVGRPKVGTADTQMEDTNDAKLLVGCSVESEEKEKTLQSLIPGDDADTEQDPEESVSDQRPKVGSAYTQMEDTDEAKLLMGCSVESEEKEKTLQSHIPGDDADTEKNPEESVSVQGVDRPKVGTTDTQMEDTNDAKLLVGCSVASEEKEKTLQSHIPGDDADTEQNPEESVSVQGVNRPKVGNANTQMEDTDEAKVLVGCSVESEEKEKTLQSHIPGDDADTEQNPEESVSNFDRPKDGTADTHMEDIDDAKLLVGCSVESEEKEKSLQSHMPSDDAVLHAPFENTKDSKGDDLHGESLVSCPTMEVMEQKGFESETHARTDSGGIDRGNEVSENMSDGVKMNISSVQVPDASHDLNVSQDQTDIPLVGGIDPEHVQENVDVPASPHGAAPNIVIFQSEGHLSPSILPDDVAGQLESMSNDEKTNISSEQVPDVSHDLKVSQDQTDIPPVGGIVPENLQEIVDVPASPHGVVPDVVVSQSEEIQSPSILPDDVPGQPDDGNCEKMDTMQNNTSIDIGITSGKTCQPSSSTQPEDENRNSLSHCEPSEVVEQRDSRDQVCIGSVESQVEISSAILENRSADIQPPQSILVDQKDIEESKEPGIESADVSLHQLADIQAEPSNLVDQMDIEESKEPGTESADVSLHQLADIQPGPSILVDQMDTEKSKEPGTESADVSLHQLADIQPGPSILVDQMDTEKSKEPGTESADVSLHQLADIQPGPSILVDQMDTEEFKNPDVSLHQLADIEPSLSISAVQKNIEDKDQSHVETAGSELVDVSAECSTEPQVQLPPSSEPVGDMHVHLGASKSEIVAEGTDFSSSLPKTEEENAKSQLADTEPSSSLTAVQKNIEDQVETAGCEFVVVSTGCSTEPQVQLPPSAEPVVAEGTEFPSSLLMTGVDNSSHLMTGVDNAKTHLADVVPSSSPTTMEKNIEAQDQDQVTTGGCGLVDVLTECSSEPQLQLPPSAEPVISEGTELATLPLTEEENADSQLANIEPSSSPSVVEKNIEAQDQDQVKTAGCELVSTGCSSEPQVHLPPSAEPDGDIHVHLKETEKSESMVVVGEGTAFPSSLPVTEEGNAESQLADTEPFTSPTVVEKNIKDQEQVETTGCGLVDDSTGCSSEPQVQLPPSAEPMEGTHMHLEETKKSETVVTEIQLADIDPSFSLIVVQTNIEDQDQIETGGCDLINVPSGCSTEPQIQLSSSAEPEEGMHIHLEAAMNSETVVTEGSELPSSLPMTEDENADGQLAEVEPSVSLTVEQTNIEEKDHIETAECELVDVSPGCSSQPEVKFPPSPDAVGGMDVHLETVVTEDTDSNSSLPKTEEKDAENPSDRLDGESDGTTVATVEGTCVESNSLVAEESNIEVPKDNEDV
UniProt F4IX81: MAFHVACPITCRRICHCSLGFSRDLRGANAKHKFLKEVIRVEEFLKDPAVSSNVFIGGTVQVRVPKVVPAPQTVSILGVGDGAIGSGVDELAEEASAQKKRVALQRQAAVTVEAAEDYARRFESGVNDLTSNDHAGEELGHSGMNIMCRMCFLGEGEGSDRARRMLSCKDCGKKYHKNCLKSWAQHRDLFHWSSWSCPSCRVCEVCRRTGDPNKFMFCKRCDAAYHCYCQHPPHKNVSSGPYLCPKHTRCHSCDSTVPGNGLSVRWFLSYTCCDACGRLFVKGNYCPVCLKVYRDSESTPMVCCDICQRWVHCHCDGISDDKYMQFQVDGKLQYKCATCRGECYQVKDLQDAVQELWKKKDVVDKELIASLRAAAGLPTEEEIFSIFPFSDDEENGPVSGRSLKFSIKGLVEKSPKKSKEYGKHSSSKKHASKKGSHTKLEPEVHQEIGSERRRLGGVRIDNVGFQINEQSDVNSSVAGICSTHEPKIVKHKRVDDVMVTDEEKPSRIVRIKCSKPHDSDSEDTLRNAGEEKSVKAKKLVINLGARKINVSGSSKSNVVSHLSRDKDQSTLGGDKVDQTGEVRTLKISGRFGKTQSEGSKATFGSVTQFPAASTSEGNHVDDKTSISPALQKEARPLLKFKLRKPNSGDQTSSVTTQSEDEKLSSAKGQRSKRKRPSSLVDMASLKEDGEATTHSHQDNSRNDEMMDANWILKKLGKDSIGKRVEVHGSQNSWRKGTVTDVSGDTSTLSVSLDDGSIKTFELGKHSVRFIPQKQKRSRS

T1: SHH2-3xFLAG (A. thaliana) (UniProt Q8RWJ7)
T1 sequence: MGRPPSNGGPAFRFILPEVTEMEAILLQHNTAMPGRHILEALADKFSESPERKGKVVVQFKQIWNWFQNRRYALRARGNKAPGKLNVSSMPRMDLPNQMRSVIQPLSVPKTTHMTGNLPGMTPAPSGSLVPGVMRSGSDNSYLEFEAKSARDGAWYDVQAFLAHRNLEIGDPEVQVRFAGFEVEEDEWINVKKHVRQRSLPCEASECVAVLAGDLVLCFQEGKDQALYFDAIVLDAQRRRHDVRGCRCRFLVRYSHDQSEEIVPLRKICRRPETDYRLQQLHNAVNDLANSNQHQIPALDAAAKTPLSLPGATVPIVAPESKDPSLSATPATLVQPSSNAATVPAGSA

T2: TPF1-3xFLAG (A. thaliana) (UniProt F4J5R1)
T2 sequence: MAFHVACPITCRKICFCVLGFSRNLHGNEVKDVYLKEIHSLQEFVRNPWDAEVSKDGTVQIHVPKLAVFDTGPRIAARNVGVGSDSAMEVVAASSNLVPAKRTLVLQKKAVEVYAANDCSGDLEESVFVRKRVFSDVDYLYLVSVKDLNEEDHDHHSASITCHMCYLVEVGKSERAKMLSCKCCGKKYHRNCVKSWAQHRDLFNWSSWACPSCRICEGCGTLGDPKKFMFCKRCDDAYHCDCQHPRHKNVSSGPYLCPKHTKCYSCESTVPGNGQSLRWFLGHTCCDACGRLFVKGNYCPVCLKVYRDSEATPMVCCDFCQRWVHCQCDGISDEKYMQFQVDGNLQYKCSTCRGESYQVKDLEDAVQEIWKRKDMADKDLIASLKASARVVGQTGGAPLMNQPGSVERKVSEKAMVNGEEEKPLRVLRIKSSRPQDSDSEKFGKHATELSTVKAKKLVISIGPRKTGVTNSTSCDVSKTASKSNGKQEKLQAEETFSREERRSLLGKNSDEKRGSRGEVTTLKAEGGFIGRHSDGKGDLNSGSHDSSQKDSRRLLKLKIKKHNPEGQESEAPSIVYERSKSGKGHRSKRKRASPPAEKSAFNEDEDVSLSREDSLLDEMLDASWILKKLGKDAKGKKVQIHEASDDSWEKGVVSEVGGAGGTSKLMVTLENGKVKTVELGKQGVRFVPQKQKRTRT


What was measured:
Experiment in all cases: affinity purification with mass spectrometry; anti-FLAG M2 magnetic beads on extracts of 8 g inflorescences of TPF1-3xFLAG or SHH2-3xFLAG transgenic A. thaliana lines, Col-0 as control; IP buffer 50 mM Tris pH 7.6, 150 mM NaCl, 5 mM MgCl2, 10% glycerol, 0.1% NP40; 3 h at 4 °C; eluted with 3xFLAG peptide; LC-MS/MS, LFQ by MaxQuant; two independent experiments with two lines each
[1] = biological target: T1, SHH2-3xFLAG (A. thaliana)
[2] = biological target: T2, TPF1-3xFLAG (A. thaliana)
[3] = biological target: T1, SHH2-3xFLAG (A. thaliana); remark: listed apart in the source
[4] = biological target: T2, TPF1-3xFLAG (A. thaliana); remark: listed apart in the source

| Molecule | binding [1] | binding [2] | binding [3] | binding [4] |
| --- | --- | --- | --- | --- |
| BCL-domain homolog 1 | binds | binds |  |  |
| BDH2 (from UniProt Q9FLP2) | binds | no binding |  |  |
| BRAHMA (BRM) ATPase (from UniProt Q6EVK6 1-2193) |  | no binding |  |  |
| BRD1 | no binding | no binding |  |  |
| BRD2 | no binding | no binding |  |  |
| BRD13 | no binding | no binding |  |  |
| BRIP1 | no binding | no binding |  |  |
| BRIP2 | no binding | no binding |  |  |
| BROMODOMAIN 5 | binds | binds |  |  |
| ONE PHD FINGER 1 (from UniProt Q9C6P8) | binds | binds |  |  |
| PLANT-SPECIFIC SWI/SNF-ASSOCIATED PROTEIN 1 (from UniProt Q9LPJ1) | binds | binds |  |  |
| SYD (from UniProt F4IHS2 1-3574) |  | no binding |  |  |
| TPF2 (from UniProt F4IX81) | binds | no binding |  |  |
| ARP7 (protein, UniProt Q8L4Y5 1-363) MEALVVDAGSKFLKAGAAIPDQSPAMIIPSQMKRMVDDGSSSADNPTTVFEDVTLDPIERGLIRDWDAMEDLLRYVVYTGLGWEEGNEGNILFTDPLCTPKAIREQLVQLMFETFNVSGFYASEQAVLSLYAVGRISGCTVDIGHGKIDIAPVLEGAVQHIASKRFELGGTELTKLFAQELGKTNPSMNLSMSDVEKLKEQYANCAEDEIAYKKTQNCEIEQHTLPDGQVISIGRERYSVGEALFQPSILGLEEHGIVEQLVRIISTVSSENHRQLLENTVLCGGTTSMTGFESRFQKEANLCSSAIRPTLVKPPEYMPENLGMYSAWVGGAILAKVVFPQNQHVTKADYDETGPSVVHRKCF |  |  | binds | binds |
| SWP73B (protein, UniProt Q9FMT4 1-534) MSGNNNNPQKPQGSAPLPFGNPGMASASVPGNQGFAQSHMAANFQAQFQFSQAQALAHAQAQSKVQAQLQAQLQAQGMTMNQAQGSPGIGGLGPSSPSLTTPGSLNMKRFQQKPPMRPPGAPASNNTISPMRTMELTPAARKKKQKLPEKSLQERVAAILPESALYTQLLEFESRVDAALTRKKVDIQEALKNPPCIQKTLRIYVFNSFANQNNTIPGNPNADPPTWTLKIIGRILEDGVDPDQPGFVQKANPLHPKFSSFFKRVTVSLDQRLYPENPLIIWENARSPAPQEGFEIKRKGNQEFAASIRLEMNYVPEKFKLSTALMDVLGIEVETRPRIIAAIWHYVKARKLQNPNDPSFFNCDAALQKVFGEEKLKFTMVSQKISHHLSPPPPIHLEHKIKLSGNNPAVSACYDVLVDVPFPIQRDLNNLLANAEKNKEIEACDEAICAAIRKIHEHRRRRAFFLGFSQSPVEFINALIESQSKDLKVVAGEASRNAERERRSDFFNQPWVEDAVIRYLNRRPAAGNDGPGSW |  |  | binds | binds |
| LFR (protein, UniProt Q9LS90 1-460) MQKRELGKSGGNSGGSSGPPAKRGRPFGSTSANSAAAAAAAAAADAMSPSALLGPSLLVHNSFVEQNNRRIVLALQSGLKSEVTWALNTLTLLSFKEKEDIRRDVMPLAKIAGLLDALLLIIDDWRDIALPKDLTRGTRVRTLGTNASVTGFGNEYDALASIQPPGSGIGSSAAEALGKKSTGKHQSSQWWMEEDGLFNLDDEGRSEKQMCAIAASNVIRNFSFMPDNEVVMAQHRHCLETVFQCIHDHMTEDEELVTNSLETIVNLAHLMDLRIFSSLKQSYININEKKAVQAVVGILNSSVKAWNCAAAELLGRLIINPDNEPFISPLIPQIHKRLIDLLSIQAVDAQAAAVGALYNLVEVNMDCRLKLASERWAVDRLLKVIKTPHPVPEVCRKAAMILENLVSEPQNRGLLLAYENAFAELLFQEGKYSDSFARILYELTARSNSRVASARGIWGM |  |  | binds | binds |
| BSH (protein, UniProt P93045 1-240) MKGLVSTGWKGPVKFRMPTAENLVPIRLDIQFEGQRYKDAFTWNPSDPDNEVVIFAKRTVKDLKLPYAFVTQIAQSIQSQLSDFRAYEGQDMYTGEKIIPIKLDLRVNHTLIKDQFLWDLNNFESDPEEFARTLCKDLGVEDPEVGPAVAFAIREQLYEIAIQSVASARESRLSKKGRRGSDHGSASKASGLSMDLMKLFSFKSSVVRKRKDLDVYEPVVDLLTSEEVDALEAREERHAR |  |  | binds | binds |
| TRIPLE PHD FINGERS 1 (protein, UniProt F4J5R1 1-696) MAFHVACPITCRKICFCVLGFSRNLHGNEVKDVYLKEIHSLQEFVRNPWDAEVSKDGTVQIHVPKLAVFDTGPRIAARNVGVGSDSAMEVVAASSNLVPAKRTLVLQKKAVEVYAANDCSGDLEESVFVRKRVFSDVDYLYLVSVKDLNEEDHDHHSASITCHMCYLVEVGKSERAKMLSCKCCGKKYHRNCVKSWAQHRDLFNWSSWACPSCRICEGCGTLGDPKKFMFCKRCDDAYHCDCQHPRHKNVSSGPYLCPKHTKCYSCESTVPGNGQSLRWFLGHTCCDACGRLFVKGNYCPVCLKVYRDSEATPMVCCDFCQRWVHCQCDGISDEKYMQFQVDGNLQYKCSTCRGESYQVKDLEDAVQEIWKRKDMADKDLIASLKASARVVGQTGGAPLMNQPGSVERKVSEKAMVNGEEEKPLRVLRIKSSRPQDSDSEKFGKHATELSTVKAKKLVISIGPRKTGVTNSTSCDVSKTASKSNGKQEKLQAEETFSREERRSLLGKNSDEKRGSRGEVTTLKAEGGFIGRHSDGKGDLNSGSHDSSQKDSRRLLKLKIKKHNPEGQESEAPSIVYERSKSGKGHRSKRKRASPPAEKSAFNEDEDVSLSREDSLLDEMLDASWILKKLGKDAKGKKVQIHEASDDSWEKGVVSEVGGAGGTSKLMVTLENGKVKTVELGKQGVRFVPQKQKRTRT |  |  | binds |  |
| ARP4 (protein, UniProt Q84M92 1-441) MYGGDEVSAIVVDLGSHTCKAGYAGEDAPKAVFPSVIGAVDGVEAMDVDVDSTKTNSNSEDSKTESEKEKSKRKLYVGSQAMSYRRDHMEVLSPIKDGIVSDWDLVDNIWEHAFKSCLMIDPTEHPMLLAEPPLNTQQQREKAAELMFEKYKVPALFMAKNPVLTSFATGRATSLVVDCGGGSTTISPVHDGYVLQKAVVSSPLGGEFLTDCLLKSLESKGIKIRPRYSFKRKEVRAGEFQVEDVDIPDTTESYKLFCQRMIVGDIKDSICRVPDTPYDDKSYSNIPTTSYELPDGQTLEIGADRFKVPDVMFNPSIVQTIPGMEKYAEMIPSVRGLPHMVMESINKCDVDIRRELYSSILLAGGTSSMQQLKERLEKDLIEESPHSARVKVLASGNTTERRFSVWIGGSILASLGSFQQMWFSKSEYEEHGASYIQRKCP |  |  | binds | binds |
| SAWADEE HOMEODOMAIN HOMOLOG 2 (protein, UniProt Q8RWJ7 1-348) MGRPPSNGGPAFRFILPEVTEMEAILLQHNTAMPGRHILEALADKFSESPERKGKVVVQFKQIWNWFQNRRYALRARGNKAPGKLNVSSMPRMDLPNQMRSVIQPLSVPKTTHMTGNLPGMTPAPSGSLVPGVMRSGSDNSYLEFEAKSARDGAWYDVQAFLAHRNLEIGDPEVQVRFAGFEVEEDEWINVKKHVRQRSLPCEASECVAVLAGDLVLCFQEGKDQALYFDAIVLDAQRRRHDVRGCRCRFLVRYSHDQSEEIVPLRKICRRPETDYRLQQLHNAVNDLANSNQHQIPALDAAAKTPLSLPGATVPIVAPESKDPSLSATPATLVQPSSNAATVPAGSA |  |  |  | binds |

Where two headings read alike, the source gives them in different places. These are yes or no findings as the source states them, for the method shown. In cells and extracts the contact can be indirect. Here binding means that the protein was enriched with, or labelled near, the bait; the list need not be complete. For part of these data: A no says only that the protein was not detected with the bait. Where a sequence is shown, tags or fusion partners need not be part of it.
